Reference: PubChem BioAssay AID504786 (Drosophila RNAi Screening Center, 2011)
Screen: 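Knock-downs reducing HIF reporter induction by the iron chelator DFO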 (primary screen). Cell system: Drosophila S2 cells with a stable HIF luciferase reporter. Reagents: long dsRNA against Drosophila genes, about 0.2 µg dsRNA per well of a 384-well plate. Duration: three days of knock-down, then 20 h of DFO before reading. Treatment: desferrioxamine (DFO) at 100 µM, an iron chelator that mimics hypoxia, for 20 h. Measurement: 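HIF reporter luminescence in cells given 100 µM DFO for 20 h, using the mouse ldh-a hypoxia-response element, scored as per-plate z-scores; higher means greater loss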. Reading the numbers: z-score: higher = stronger loss of HIF reporter signal.
The screen tested about 21,000 reagents; this is an unselected part of those that have a named target and a result. 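Primary screen; positive scores mean lost reporter signal, so the sign may be inverted from the usual convention.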 Names joined by + are all predicted targets of the reagent. Reagent sequences are not shown.

Gene | amplicon | z-score, replicate 1 | z-score, replicate 2 | z-score, replicate 3 | z-score, replicate 4
Prx6c + CG12896 + Prx6b | DRSC06148 | -0.3 | -0.2 | – | –
eloF | DRSC15162 | -0.3 | -0.6 | – | –
Ythdf | DRSC16036 | 0.2 | -0.3 | – | –
Ythdf | DRSC16037 | 0 | -0.8 | – | –
yellow-b | DRSC03639 | -0.3 | -0.4 | – | –
Cpr78Cc | DRSC11846 | -0.2 | -0.3 | – | –
CG14739 | DRSC14959 | -0.2 | 0 | – | –
Smyd4-1 | DRSC06785 | -0.3 | -0.2 | – | –
Ugt36A1 + CG15418 | DRSC00432 | 0 | -0.3 | – | –
SRPK | DRSC07090 | -0.2 | 0.1 | – | –
fand | DRSC06967 | 4.1 | 3.8 | – | –
fz2 | DRSC09595 | 0.3 | 0.9 | – | –
fz2 | DRSC10087 | -0.4 | -0.7 | -0.3 | -0.1
fz2 | DRSC11349 | -0.3 | -0.3 | – | –
CG8765 | DRSC11041 | 0.4 | -0.4 | – | –
ReepA | DRSC04572 | -0.1 | 0.1 | – | –
fig | DRSC16270 | 0 | 0.1 | – | –
CG15233 | DRSC04967 | -0.2 | 0.1 | – | –
GstT3 | DRSC20541 | -0.2 | -0.1 | – | –
CG32050 (retired record) | DRSC10173 | -0.3 | -0.7 | – | –
CG30037 | DRSC07305 | -0.1 | -0.1 | – | –
pygo | DRSC14322 | 1.6 | 1.2 | – | –
Ctns | DRSC15175 | -0.1 | -0.4 | – | –
CG30183 | DRSC04450 | -0.2 | 0 | – | –
CG30183 | DRSC04472 | -0.1 | -0.1 | – | –
CG7222 | DRSC07019 | -0.4 | -0.5 | – | –
CG18368 | DRSC06731 | -0.4 | -0.5 | – | –
nemy | DRSC05357 | -0.1 | -0.3 | – | –
nemy | DRSC07262 | -0.2 | 0.3 | -0.8 | -0.4
Nepl14 | DRSC15631 | 0 | -0.7 | – | –
Syx7 | DRSC11763 | -0.4 | -0.4 | – | –
Rae1 | DRSC04577 | 0.5 | 0.4 | – | –
Ass + CG31286 | DRSC12493 | -0.4 | -0.7 | – | –
Hsp83 | DRSC08664 | 2.2 | 2.7 | – | –
Cyp6a23 | DRSC07383 | -0.1 | -0.1 | – | –
CG12237 | DRSC19449 | -0.4 | -0.4 | -0.4 | -0.2
CG2680 | DRSC18466 | -0.1 | -0.7 | – | –
tos | DRSC03624 | -0.4 | -0.3 | – | –
Cpr47Eb | DRSC06345 | -0.4 | -0.3 | – | –
CG11679 | DRSC19415 | 0.2 | -0.1 | – | –
Cpr78Ca | DRSC11651 | -0.2 | -0.1 | – | –
Rpt3R | DRSC16501 | 2.2 | 1.7 | – | –
Dci | DRSC08360 | 0.1 | -0.2 | – | –
Rfx | DRSC16820 | 0.4 | 0.8 | – | –
Su(dx) | DRSC00791 | -0.3 | -0.2 | – | –
VhaPPA1-2 | DRSC16176 | 0 | -0.3 | – | –
S-Lap2 | DRSC10628 | -0.3 | 0.2 | – | –
IscU | DRSC16572 | 2.6 | 0.7 | – | –
CG12099 | DRSC08253 | -0.2 | -0.1 | – | –
CG6231 | DRSC15997 | -0.7 | -0.6 | – | –
CG1703 | DRSC19764 | 0.2 | 0.8 | – | –
CG12723 | DRSC19499 | -0.2 | -1 | – | –
CG3213 | DRSC00576 | 1.8 | -0.4 | – | –
Mst84Db | DRSC12542 | -0.4 | -0.5 | – | –
Mst84Db | DRSC12598 | -0.3 | -0.5 | – | –
CG13725 | DRSC10054 | -0.6 | -0.4 | – | –

6 entries from above, reformatted:
{"Gene":"Ctns","amplicon":"DRSC15175","z-score, replicate 1":-0.1,"z-score, replicate 2":-0.4}
{"Gene":"CG30183","amplicon":"DRSC04450","z-score, replicate 1":-0.2,"z-score, replicate 2":0}
{"Gene":"CG30183","amplicon":"DRSC04472","z-score, replicate 1":-0.1,"z-score, replicate 2":-0.1}
{"Gene":"CG7222","amplicon":"DRSC07019","z-score, replicate 1":-0.4,"z-score, replicate 2":-0.5}
{"Gene":"CG18368","amplicon":"DRSC06731","z-score, replicate 1":-0.4,"z-score, replicate 2":-0.5}
{"Gene":"nemy","amplicon":"DRSC05357","z-score, replicate 1":-0.1,"z-score, replicate 2":-0.3}
